Here are results for 37 targets from the supplement of paper PMC6411743.

Amino acid sequences for entries named in this document (tags omitted). A change or cut given only in a name is not applied to a line headed by its entry.
UniProt P51608, whole entry: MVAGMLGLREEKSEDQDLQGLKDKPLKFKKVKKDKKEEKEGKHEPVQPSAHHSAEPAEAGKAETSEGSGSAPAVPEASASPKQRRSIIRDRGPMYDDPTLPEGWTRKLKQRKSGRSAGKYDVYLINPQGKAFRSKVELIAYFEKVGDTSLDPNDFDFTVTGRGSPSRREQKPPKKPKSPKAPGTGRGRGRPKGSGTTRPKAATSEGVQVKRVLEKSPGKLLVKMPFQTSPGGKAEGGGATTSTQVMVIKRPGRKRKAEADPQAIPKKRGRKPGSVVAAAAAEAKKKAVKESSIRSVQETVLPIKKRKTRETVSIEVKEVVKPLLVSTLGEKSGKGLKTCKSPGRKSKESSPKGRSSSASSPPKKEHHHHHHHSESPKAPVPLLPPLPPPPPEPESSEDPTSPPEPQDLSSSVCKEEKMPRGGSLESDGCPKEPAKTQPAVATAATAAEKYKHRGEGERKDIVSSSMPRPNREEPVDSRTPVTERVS
UniProt P51798: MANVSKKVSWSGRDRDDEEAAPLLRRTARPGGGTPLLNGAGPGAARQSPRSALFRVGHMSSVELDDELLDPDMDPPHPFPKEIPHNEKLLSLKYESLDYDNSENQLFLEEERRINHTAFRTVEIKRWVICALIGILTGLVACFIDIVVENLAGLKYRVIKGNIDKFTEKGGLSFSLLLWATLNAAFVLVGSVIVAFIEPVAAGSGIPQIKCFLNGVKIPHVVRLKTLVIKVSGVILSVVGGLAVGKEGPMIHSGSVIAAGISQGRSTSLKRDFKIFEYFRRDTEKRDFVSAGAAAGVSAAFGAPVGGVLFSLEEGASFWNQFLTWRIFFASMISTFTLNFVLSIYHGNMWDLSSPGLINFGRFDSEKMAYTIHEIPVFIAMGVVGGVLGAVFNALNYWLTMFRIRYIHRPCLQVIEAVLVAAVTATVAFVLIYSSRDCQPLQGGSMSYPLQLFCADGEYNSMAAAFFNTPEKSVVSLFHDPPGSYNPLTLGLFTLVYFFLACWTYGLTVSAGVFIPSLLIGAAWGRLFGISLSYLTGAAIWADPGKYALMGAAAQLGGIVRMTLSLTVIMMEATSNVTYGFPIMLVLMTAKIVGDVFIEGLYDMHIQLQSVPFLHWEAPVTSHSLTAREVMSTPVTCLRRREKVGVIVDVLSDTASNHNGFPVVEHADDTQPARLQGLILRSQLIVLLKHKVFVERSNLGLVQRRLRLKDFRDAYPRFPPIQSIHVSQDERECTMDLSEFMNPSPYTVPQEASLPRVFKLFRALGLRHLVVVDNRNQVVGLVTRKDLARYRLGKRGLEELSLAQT
UniProt P48449: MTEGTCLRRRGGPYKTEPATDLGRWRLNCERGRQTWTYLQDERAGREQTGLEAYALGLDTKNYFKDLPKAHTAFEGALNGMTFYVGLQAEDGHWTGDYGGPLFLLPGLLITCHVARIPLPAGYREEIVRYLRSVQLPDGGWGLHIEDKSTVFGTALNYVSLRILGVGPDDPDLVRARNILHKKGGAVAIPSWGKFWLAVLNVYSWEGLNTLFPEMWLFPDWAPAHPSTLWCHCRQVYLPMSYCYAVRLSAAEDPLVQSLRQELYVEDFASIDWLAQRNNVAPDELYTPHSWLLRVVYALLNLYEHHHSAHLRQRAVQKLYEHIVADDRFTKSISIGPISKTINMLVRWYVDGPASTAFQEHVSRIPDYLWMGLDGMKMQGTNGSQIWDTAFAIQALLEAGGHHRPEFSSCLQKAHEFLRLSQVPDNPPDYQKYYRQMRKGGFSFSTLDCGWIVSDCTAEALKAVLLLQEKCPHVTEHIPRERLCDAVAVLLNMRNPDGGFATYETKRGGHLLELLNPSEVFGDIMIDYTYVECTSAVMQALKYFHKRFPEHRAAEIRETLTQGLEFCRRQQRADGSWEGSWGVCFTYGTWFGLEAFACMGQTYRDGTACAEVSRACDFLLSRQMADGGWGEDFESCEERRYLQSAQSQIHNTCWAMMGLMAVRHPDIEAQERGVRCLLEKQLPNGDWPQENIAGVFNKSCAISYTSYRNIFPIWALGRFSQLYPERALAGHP
UniProt P46108: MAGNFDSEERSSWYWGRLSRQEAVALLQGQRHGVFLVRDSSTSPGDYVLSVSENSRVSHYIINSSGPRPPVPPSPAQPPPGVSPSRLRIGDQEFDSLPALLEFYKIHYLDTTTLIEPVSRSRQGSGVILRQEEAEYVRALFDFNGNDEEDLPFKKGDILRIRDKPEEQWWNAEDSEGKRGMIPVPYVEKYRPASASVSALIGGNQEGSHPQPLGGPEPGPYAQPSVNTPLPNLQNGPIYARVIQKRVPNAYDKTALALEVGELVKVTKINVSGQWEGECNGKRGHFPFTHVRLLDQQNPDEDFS
UniProt P50995, whole entry: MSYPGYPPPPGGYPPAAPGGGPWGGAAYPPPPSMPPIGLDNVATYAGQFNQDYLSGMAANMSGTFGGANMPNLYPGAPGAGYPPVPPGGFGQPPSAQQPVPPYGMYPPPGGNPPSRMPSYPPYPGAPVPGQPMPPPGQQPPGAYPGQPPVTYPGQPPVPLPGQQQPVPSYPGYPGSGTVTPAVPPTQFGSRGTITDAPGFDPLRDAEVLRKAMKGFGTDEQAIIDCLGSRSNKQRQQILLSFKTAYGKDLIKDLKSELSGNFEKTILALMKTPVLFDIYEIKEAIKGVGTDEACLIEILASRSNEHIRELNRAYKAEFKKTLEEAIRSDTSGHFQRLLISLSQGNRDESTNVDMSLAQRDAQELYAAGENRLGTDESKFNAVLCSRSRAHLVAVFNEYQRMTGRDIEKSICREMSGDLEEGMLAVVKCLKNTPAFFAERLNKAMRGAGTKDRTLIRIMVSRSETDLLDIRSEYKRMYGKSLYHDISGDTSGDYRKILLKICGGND
UniProt P51532, whole entry: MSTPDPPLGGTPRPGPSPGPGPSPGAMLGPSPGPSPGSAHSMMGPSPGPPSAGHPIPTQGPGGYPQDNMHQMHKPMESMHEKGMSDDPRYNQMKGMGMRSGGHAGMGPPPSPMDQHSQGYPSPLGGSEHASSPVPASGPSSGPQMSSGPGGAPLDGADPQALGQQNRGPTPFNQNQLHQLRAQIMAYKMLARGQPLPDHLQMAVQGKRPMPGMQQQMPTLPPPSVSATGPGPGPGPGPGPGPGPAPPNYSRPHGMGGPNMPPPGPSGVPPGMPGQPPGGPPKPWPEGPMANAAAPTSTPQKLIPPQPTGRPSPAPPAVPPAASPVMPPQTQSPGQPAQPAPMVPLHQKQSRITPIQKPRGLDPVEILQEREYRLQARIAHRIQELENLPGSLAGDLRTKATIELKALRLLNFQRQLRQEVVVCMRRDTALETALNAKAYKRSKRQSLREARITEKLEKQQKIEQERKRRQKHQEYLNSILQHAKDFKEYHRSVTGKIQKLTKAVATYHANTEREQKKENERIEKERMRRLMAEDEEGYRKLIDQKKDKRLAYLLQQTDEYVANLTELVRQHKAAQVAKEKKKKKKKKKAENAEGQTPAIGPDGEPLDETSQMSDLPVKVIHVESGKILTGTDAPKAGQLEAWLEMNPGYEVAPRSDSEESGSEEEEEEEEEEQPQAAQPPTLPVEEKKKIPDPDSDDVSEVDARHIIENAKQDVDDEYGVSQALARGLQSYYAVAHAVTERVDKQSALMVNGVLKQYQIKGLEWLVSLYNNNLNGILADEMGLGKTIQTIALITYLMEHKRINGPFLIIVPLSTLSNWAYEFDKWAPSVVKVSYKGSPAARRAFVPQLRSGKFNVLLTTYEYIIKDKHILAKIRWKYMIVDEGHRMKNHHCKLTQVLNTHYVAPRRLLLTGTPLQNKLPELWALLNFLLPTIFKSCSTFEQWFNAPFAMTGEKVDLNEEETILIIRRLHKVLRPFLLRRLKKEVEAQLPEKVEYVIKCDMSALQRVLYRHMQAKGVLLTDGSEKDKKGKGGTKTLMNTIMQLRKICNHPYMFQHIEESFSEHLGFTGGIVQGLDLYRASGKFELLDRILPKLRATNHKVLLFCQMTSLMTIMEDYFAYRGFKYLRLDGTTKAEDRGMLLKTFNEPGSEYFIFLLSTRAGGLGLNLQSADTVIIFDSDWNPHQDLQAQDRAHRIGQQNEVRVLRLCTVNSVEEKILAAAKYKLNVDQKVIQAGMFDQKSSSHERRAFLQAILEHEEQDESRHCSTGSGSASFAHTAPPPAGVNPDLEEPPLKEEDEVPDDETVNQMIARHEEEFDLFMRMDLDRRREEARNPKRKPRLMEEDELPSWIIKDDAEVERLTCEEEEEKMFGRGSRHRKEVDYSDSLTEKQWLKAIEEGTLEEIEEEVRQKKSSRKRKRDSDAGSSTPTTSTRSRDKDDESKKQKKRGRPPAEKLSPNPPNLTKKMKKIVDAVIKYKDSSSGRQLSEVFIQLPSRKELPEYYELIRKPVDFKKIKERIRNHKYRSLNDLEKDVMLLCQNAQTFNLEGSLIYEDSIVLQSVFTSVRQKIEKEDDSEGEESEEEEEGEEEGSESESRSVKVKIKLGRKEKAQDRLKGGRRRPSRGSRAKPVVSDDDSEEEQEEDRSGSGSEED
UniProt P36957: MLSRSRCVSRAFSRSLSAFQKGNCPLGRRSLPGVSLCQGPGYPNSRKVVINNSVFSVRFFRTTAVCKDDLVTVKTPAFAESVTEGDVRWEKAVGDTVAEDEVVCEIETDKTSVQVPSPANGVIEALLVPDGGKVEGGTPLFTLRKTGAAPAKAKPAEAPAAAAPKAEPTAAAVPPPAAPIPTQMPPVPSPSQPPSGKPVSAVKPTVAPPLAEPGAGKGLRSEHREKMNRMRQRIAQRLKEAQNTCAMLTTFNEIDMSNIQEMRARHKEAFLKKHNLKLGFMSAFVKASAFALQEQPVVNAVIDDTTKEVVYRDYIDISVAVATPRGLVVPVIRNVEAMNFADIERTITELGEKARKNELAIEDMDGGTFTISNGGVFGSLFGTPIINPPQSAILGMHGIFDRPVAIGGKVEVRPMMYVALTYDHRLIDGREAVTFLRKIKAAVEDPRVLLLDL
UniProt P48507: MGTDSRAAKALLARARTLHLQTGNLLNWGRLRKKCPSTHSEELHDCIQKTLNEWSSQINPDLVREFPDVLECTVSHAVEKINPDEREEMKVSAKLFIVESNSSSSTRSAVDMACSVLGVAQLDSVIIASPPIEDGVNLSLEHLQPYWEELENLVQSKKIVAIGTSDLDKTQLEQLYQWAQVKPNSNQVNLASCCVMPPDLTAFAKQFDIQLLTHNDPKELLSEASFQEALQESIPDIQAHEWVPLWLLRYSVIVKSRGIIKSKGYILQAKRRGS
UniProt P49427: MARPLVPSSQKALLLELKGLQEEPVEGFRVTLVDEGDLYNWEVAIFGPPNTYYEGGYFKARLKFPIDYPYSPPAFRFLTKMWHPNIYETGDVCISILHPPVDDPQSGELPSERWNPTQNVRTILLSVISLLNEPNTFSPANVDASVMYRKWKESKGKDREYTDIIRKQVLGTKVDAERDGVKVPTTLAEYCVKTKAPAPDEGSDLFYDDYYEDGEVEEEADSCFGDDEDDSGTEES
UniProt P40337, whole entry, looked up: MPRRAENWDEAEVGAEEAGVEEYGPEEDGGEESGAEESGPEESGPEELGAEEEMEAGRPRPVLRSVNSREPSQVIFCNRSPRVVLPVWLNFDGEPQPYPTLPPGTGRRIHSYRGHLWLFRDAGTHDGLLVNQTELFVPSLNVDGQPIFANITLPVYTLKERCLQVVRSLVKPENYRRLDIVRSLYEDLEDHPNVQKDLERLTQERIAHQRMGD
UniProt P48506: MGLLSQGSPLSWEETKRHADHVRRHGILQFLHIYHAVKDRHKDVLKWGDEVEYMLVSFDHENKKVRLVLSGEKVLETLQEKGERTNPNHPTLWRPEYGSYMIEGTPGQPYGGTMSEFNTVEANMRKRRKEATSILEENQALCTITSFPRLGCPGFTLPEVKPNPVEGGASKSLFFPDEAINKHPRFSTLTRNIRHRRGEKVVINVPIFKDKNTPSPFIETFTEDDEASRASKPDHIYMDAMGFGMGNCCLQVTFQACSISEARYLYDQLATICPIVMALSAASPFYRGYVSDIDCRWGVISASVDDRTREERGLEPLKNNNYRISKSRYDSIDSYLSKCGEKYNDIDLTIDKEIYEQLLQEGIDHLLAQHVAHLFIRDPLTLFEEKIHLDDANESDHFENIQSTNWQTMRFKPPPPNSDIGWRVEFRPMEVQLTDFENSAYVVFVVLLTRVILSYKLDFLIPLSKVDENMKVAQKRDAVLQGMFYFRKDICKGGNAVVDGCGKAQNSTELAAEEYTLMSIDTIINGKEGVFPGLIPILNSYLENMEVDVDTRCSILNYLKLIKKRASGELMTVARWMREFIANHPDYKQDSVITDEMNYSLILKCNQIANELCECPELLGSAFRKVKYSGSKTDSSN
UniProt P50583: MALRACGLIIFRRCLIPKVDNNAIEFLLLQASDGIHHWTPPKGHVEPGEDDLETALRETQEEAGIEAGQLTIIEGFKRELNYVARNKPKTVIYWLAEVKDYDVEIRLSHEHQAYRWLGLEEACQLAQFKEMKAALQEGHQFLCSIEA
UniProt P49458: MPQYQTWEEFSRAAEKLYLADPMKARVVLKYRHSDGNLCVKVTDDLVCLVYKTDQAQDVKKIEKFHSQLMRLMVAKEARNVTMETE

± gives the standard deviation of the averaged measurements. This is a selection; strong and weak results do not stand in their true shares. Most values lie at the level of the controls, where differences are scatter.

Compound in one assay: Nc1ncnc2c1ncn2[C@@H]1O[C@H](COP(=O)(O)OP(=O)(O)OP(=O)(O)O)[C@@H](O)[C@H]1O [adenosine triphosphate]
In words: NP40-soluble protein abundance relative to vehicle (solubility fold change) (ratio); higher = more soluble protein in presence of ATP. The note with it: concentration: 0.1mM. Put shortly:
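Jurkat crude lysate prepared with a Dounce homogeniser was treated at eight concentrations spanning 0.1 to 10 mM, 10 min at room temperature then 3 min at 37 °C. Solubilisation with 0.8% NP40 and benzonase and ultracentrifugation preceded TMT labelling of the supernatant for LC-MS/MS. Fold change against the detergent-processed vehicle was determined per replicate from vsn-normalised intensities, across three independent experiments.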
PPM1A (UniProt P35813): the NP40-soluble protein abundance amounted to 1.01 ± 0.054.

As for UniProt P51608-2, the NP40-soluble protein abundance was found to be 0.9758 ± 0.0089.

In the case of NCAPD3 (UniProt P42695), the NP40-soluble protein abundance stood at 1.03 ± 0.032.

On to UniProt P41134 and related entries, for which the NP40-soluble protein abundance is 0.846 ± 0.14.

Turning to NCBP2 (UniProt P52298), the NP40-soluble protein abundance was found to be 0.984 ± 0.037.

UniProt P48047: the NP40-soluble protein abundance is 0.899 ± 0.12.

For the target HTT (UniProt P42858), the NP40-soluble protein abundance is 1.05 ± 0.025.

CCT3 (UniProt P49368): the NP40-soluble protein abundance turned out to be 0.981 ± 0.041.

UniProt P51798 and related entries: the NP40-soluble protein abundance worked out at 1.05 ± 0.065.

As for PIK3CB (UniProt P42338), the NP40-soluble protein abundance worked out at 1.07 ± 0.16.

For the target LSS (UniProt P48449), the NP40-soluble protein abundance is 1.03 ± 0.085.

Turning to LRPPRC (UniProt P42704), the NP40-soluble protein abundance came to 0.97 ± 0.063.

As to UniProt P46783 and related entries, the NP40-soluble protein abundance stood at 0.971 ± 0.11.

As to UniProt P46108 and related entries, the NP40-soluble protein abundance was found to be 1.06 ± 0.038.

With UniProt P50995 and related entries, the NP40-soluble protein abundance was 0.9849 ± 0.0039.

On to UniProt P52333 and related entries, for which the NP40-soluble protein abundance was determined as 1.106 ± 0.0098.

Regarding RECQL (UniProt P46063), the NP40-soluble protein abundance stood at 1.04 ± 0.11.

As to RPL3 (UniProt P39023), the NP40-soluble protein abundance stood at 0.979 ± 0.041.

UniProt P51795-2|P51795: the NP40-soluble protein abundance worked out at 1.08 ± 0.069.

“UniProt P51532-2|P51532-3|P51532-4|P51532-5|Q9HBD4 and related entries”: the NP40-soluble protein abundance is 0.99 ± 0.058.

With HPCAL1 (UniProt P37235), the NP40-soluble protein abundance turned out to be 0.954 ± 0.021.

Regarding UniProt P49916 and related entries, the NP40-soluble protein abundance was found to be 1.07 ± 0.047.

In the case of DLST (UniProt P36957), the NP40-soluble protein abundance is 0.994 ± 0.11.

On to UniProt P52888 and related entries, for which the NP40-soluble protein abundance was determined as 1.04 ± 0.048.

With GCLM (UniProt P48507), the NP40-soluble protein abundance was 0.9574 ± 0.0067.

Consider ARHGDIB (UniProt P52566), for which the NP40-soluble protein abundance is 1.02 ± 0.059.

As to CENPF (UniProt P49454), the NP40-soluble protein abundance turned out to be 0.993 ± 0.018.

As for CBX5 (UniProt P45973), the NP40-soluble protein abundance was 1.01 ± 0.026.

Turning to CDC34 (UniProt P49427), the NP40-soluble protein abundance turned out to be 0.962 ± 0.05.

As for UniProt P40337-2|P40337-3, the NP40-soluble protein abundance came out at 0.844 ± 0.12.

With GCLC (UniProt P48506), the NP40-soluble protein abundance came to 1.06 ± 0.067.

For UniProt P47756-2, the NP40-soluble protein abundance was 1.01 ± 0.024.

With UniProt P49023-2, the NP40-soluble protein abundance is 1.01 ± 0.014.

As to GTF2A1 (UniProt P52655), the NP40-soluble protein abundance is 0.989 ± 0.14.

NUDT2 (UniProt P50583): the NP40-soluble protein abundance was determined as 0.997 ± 0.012.

In the case of IQGAP1 (UniProt P46940), the NP40-soluble protein abundance came out at 0.993 ± 0.067.

As for SRP9 (UniProt P49458), the NP40-soluble protein abundance came out at 0.962 ± 0.043.

The assay is the same for the next values; noted with them: concentration: 0.5mM.
In the case of PPM1A (UniProt P35813), the NP40-soluble protein abundance amounted to 1.01 ± 0.051.

Take UniProt P51608-2: the NP40-soluble protein abundance was 1.04 ± 0.035.

NCAPD3 (UniProt P42695): the NP40-soluble protein abundance was determined as 1.09 ± 0.012.

Regarding UniProt P41134 and related entries, the NP40-soluble protein abundance amounted to 0.88 ± 0.08.

As for NCBP2 (UniProt P52298), the NP40-soluble protein abundance came out at 1 ± 0.017.

For UniProt P48047, the NP40-soluble protein abundance was 0.848 ± 0.14.

HTT (UniProt P42858): the NP40-soluble protein abundance came out at 1.01 ± 0.017.

As to CCT3 (UniProt P49368), the NP40-soluble protein abundance came to 0.982 ± 0.071.

Turning to UniProt P51798 and related entries, the NP40-soluble protein abundance was determined as 1.05 ± 0.039.

In the case of PIK3CB (UniProt P42338), the NP40-soluble protein abundance was found to be 1.14 ± 0.11.

Turning to LSS (UniProt P48449), the NP40-soluble protein abundance was 1.01 ± 0.064.

Regarding LRPPRC (UniProt P42704), the NP40-soluble protein abundance amounted to 1.02 ± 0.045.

As for UniProt P46783 and related entries, the NP40-soluble protein abundance was 0.924 ± 0.099.

Regarding UniProt P46108 and related entries, the NP40-soluble protein abundance stood at 1.04 ± 0.046.

Regarding UniProt P50995 and related entries, the NP40-soluble protein abundance was 0.96 ± 0.021.

As for UniProt P52333 and related entries, the NP40-soluble protein abundance was 1.05 ± 0.031.

As to RECQL (UniProt P46063), the NP40-soluble protein abundance is 1.03 ± 0.027.

Take RPL3 (UniProt P39023): the NP40-soluble protein abundance turned out to be 0.995 ± 0.085.

As for UniProt P51795-2|P51795, the NP40-soluble protein abundance is 0.986 ± 0.037.

As for “UniProt P51532-2|P51532-3|P51532-4|P51532-5|Q9HBD4 and related entries”, the NP40-soluble protein abundance was 1.06 ± 0.086.

Consider HPCAL1 (UniProt P37235), for which the NP40-soluble protein abundance was 0.896 ± 0.089.

For UniProt P49916 and related entries, the NP40-soluble protein abundance came out at 1.1 ± 0.06.

DLST (UniProt P36957): the NP40-soluble protein abundance stood at 1.04 ± 0.18.

With UniProt P52888 and related entries, the NP40-soluble protein abundance turned out to be 1.02 ± 0.063.

Take GCLM (UniProt P48507): the NP40-soluble protein abundance came out at 0.934 ± 0.026.

For ARHGDIB (UniProt P52566), the NP40-soluble protein abundance worked out at 1.04 ± 0.057.

CENPF (UniProt P49454): the NP40-soluble protein abundance was found to be 1.01 ± 0.06.

For the target CBX5 (UniProt P45973), the NP40-soluble protein abundance came to 1.088 ± 0.01.

For CDC34 (UniProt P49427), the NP40-soluble protein abundance was determined as 0.992 ± 0.09.

Regarding UniProt P40337-2|P40337-3, the NP40-soluble protein abundance worked out at 0.854 ± 0.19.

As for GCLC (UniProt P48506), the NP40-soluble protein abundance was found to be 1.04 ± 0.087.

For UniProt P47756-2, the NP40-soluble protein abundance amounted to 1.02 ± 0.058.

For the target UniProt P49023-2, the NP40-soluble protein abundance was 1.01 ± 0.027.

With GTF2A1 (UniProt P52655), the NP40-soluble protein abundance was determined as 0.908 ± 0.15.

In the case of NUDT2 (UniProt P50583), the NP40-soluble protein abundance is 0.984 ± 0.075.

As for IQGAP1 (UniProt P46940), the NP40-soluble protein abundance was 1.02 ± 0.037.

Consider SRP9 (UniProt P49458), for which the NP40-soluble protein abundance is 0.927 ± 0.14.
